The text below walks through data of publication PMC5384083.

Sequences of proteins named here, by UniProt entry; tags and fusion partners are left off. A change or cut given only in a name is not applied to a line headed by its entry.
UniProt Q08050: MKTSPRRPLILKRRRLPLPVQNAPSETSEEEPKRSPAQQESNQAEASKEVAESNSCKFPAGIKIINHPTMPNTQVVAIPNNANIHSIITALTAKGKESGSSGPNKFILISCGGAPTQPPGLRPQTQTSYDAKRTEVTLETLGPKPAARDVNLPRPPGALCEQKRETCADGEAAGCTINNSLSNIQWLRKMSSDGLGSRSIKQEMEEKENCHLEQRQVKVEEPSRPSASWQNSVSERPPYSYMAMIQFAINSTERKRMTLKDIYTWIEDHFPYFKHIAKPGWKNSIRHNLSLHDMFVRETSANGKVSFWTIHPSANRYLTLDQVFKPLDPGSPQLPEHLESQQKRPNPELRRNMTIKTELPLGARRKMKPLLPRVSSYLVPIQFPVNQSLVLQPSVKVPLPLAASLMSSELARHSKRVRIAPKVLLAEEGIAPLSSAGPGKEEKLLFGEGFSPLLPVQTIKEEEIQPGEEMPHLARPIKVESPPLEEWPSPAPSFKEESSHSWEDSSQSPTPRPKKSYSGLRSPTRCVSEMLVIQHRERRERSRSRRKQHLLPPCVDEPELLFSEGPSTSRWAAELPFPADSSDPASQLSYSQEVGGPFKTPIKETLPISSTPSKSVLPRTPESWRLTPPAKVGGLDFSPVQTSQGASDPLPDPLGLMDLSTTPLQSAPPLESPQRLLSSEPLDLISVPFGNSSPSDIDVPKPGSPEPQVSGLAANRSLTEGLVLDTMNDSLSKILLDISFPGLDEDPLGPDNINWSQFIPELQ

Test [1] deals with T7-His tagged C-terminal FoxM1b (residues 508–748), wild type (UniProt Q08050). Kind of test: pull-down; E. coli lysates of T7-His FoxM1b (508-748) WT or DD mixed with lysates holding GST-Rb or GST-CBP-KIX, bound to Ni-NTA agarose columns, washed 10 times with 25 mM imidazole in PBS pH 7.5, eluted with 250 mM imidazole, blots with Rb antibody or GST antibody.
Test [2] concerns the target T7-His tagged C-terminal FoxM1b (DD) mutant (508–748). The test is described as above.
Test [3] has as its target GFP-FoxM1 mutant (232–748) (UniProt Q08050). As to the kind of experiment: co-IP; lysates (700-800 ug) of MCF7 cells transiently transfected with GFP-FoxM1b constructs, 48 h; immunoprecipitated with GFP antibody; blots for endogenous Rb, DNMT3b, CBP; in one panel with co-expressed kinase-active or kinase-dead Plk1.
For another test, the target named is GFP-FoxM1b (1–688). Described as above.
In test [4] the target is GFP fusion construct containing the N-terminal residues 1–332 of FoxM1 (UniProt Q08050). The description is as above.
For the next test, the target named is GFP-FoxM1b T596A. Described as above.
In the next test the target is GFP-FoxM1:710–748 (UniProt Q08050). The test is described as above.
Test [5] addresses GFP-FoxM1 full length (FL). The test is described as above.
Test [6] concerns the target GFP-FoxM1b S715A, S724A (AA). Described as above.
Test [7] addresses T7 tagged phosphodefective mutant (T596A) of FoxM1. Kind of test: co-IP; lysates (800 ug) of MDA-MB-453 cells transiently transfected with T7-tagged FoxM1 constructs; immunoprecipitated with monoclonal T7 antibody; blots for endogenous CBP, Rb, DNMT3b.
The target of test [8] is FoxM1, endogenous (detected with pan-FoxM1 antibody) (human (endogenous in MCF7)). Kind of test: co-IP; extracts of MCF7 cells, endogenous proteins; immunoprecipitated with Rb, CBP, FoxM1 or P3 (phospho-FoxM1) antibody; blots with pan-FoxM1, P3, CBP, Rb, DNMT3b antibodies; in one panel cells treated with BI 2536 (100 nM, 24 h) or DMSO.
Test [9] concerns the target GFP-FoxM1b S715D, S724D (DD). As to the kind of experiment: co-IP; Fig. S4: wild type and mutant FoxM1 tested for p130 and p107; cells and tag not told in the text shown.
Test [10] has as its target GFP-FoxM1 full length (FL). Described as above.

No constants are given. Whether binding was seen depends on the method and setting. In cells and extracts the contact can be indirect. For some of these results: Binding calls can cover weak binding; strength is not graded here. For some of these results: Sequences can lack the tags named with a protein.

B1: GST-Rb (residues 379–928) (domain or fragment, UniProt P06400 379-928)
chain: MNTIQQLMMILNSASDQPSENLISYFNNCTVNPKESILKRVKDIGYIFKEKFAKAVGQGCVEIGSQRYKLGVRLYYRVMESMLKSEEERLSIQNFSKLLNDNIFHMSLLACALEVVMATYSRSTSQNLDSGTDLSFPWILNVLNLKAFDFYKVIESFIKAEGNLTREMIKHLERCEHRIMESLAWLSDSPLFDLIKQSKDREGPTDHLESACPLNLPLQNNHTAADMYLSPVRSPKKKGSTTRVNSTANAETQATSAFQTQKPLKSTSLSLFYKKVYRLAYLRLNTLCERLLSEHPELEHIIWTLFQHTLQNEYELMRDRHLDQIMMCSMYGICKVKNIDLKFKIIVTAYKDLPHAVQETFKRVLIKEEEYDSIIVFYNSVFMQRLKTNILQYASTRPPTLSPIPHIPRSPYKFPSSPLRIPGGNIYISPLKSPYKISEGLPTPTKMTPRSRILVSIGESFGTSEKFQKINQMVCNSDRVLKRSAEGSNPPKPLKKLRFDIEGSDEADGSKHLPGESKFQQKLAEMTSTRTRMQKQKMNDSMDTSNKEEK
As to B1, the binding entry in test [1] is listed as “binds”; in [2] it was “no binding”.

B2: Retinoblastoma protein (Rb), endogenous (protein, UniProt P06400 1-928)
chain: MPPKTPRKTAATAAAAAAEPPAPPPPPPPEEDPEQDSGPEDLPLVRLEFEETEEPDFTALCQKLKIPDHVRERAWLTWEKVSSVDGVLGGYIQKKKELWGICIFIAAVDLDEMSFTFTELQKNIEISVHKFFNLLKEIDTSTKVDNAMSRLLKKYDVLFALFSKLERTCELIYLTQPSSSISTEINSALVLKVSWITFLLAKGEVLQMEDDLVISFQLMLCVLDYFIKLSPPMLLKEPYKTAVIPINGSPRTPRRGQNRSARIAKQLENDTRIIEVLCKEHECNIDEVKNVYFKNFIPFMNSLGLVTSNGLPEVENLSKRYEEIYLKNKDLDARLFLDHDKTLQTDSIDSFETQRTPRKSNLDEEVNVIPPHTPVRTVMNTIQQLMMILNSASDQPSENLISYFNNCTVNPKESILKRVKDIGYIFKEKFAKAVGQGCVEIGSQRYKLGVRLYYRVMESMLKSEEERLSIQNFSKLLNDNIFHMSLLACALEVVMATYSRSTSQNLDSGTDLSFPWILNVLNLKAFDFYKVIESFIKAEGNLTREMIKHLERCEHRIMESLAWLSDSPLFDLIKQSKDREGPTDHLESACPLNLPLQNNHTAADMYLSPVRSPKKKGSTTRVNSTANAETQATSAFQTQKPLKSTSLSLFYKKVYRLAYLRLNTLCERLLSEHPELEHIIWTLFQHTLQNEYELMRDRHLDQIMMCSMYGICKVKNIDLKFKIIVTAYKDLPHAVQETFKRVLIKEEEYDSIIVFYNSVFMQRLKTNILQYASTRPPTLSPIPHIPRSPYKFPSSPLRIPGGNIYISPLKSPYKISEGLPTPTKMTPRSRILVSIGESFGTSEKFQKINQMVCNSDRVLKRSAEGSNPPKPLKKLRFDIEGSDEADGSKHLPGESKFQQKLAEMTSTRTRMQKQKMNDSMDTSNKEEK
On to B2, for which the binding result in test [3] is recorded as “binds”; in the test with GFP-FoxM1b (1–688), “no binding”; in test [4], “no binding”; with GFP-FoxM1b T596A, “binds”; in the test with GFP-FoxM1:710–748, “no binding”; in test [5], “binds”. For the same molecule, the binding entry in [6], in [7] and in [8] was “binds” in each case.

B3: Rb-family protein p107 (protein, UniProt P28749 1-1068)
chain: MFEDKPHAEGAAVVAAAGEALQALCQELNLDEGSAAEALDDFTAIRGNYSLEGEVTHWLACSLYVACRKSIIPTVGKGIMEGNCVSLTRILRSAKLSLIQFFSKMKKWMDMSNLPQEFRERIERLERNFEVSTVIFKKYEPIFLDIFQNPYEEPPKLPRSRKQRRIPCSVKDLFNFCWTLFVYTKGNFRMIGDDLVNSYHLLLCCLDLIFANAIMCPNRQDLLNPSFKGLPSDFHTADFTASEEPPCIIAVLCELHDGLLVEAKGIKEHYFKPYISKLFDRKILKGECLLDLSSFTDNSKAVNKEYEEYVLTVGDFDERIFLGADAEEEIGTPRKFTRDTPLGKLTAQANVEYNLQQHFEKKRSFAPSTPLTGRRYLREKEAVITPVASATQSVSRLQSIVAGLKNAPSDQLINIFESCVRNPVENIMKILKGIGETFCQHYTQSTDEQPGSHIDFAVNRLKLAEILYYKILETVMVQETRRLHGMDMSVLLEQDIFHRSLMACCLEIVLFAYSSPRTFPWIIEVLNLQPFYFYKVIEVVIRSEEGLSRDMVKHLNSIEEQILESLAWSHDSALWEALQVSANKVPTCEEVIFPNNFETGNGGNVQGHLPLMPMSPLMHPRVKEVRTDSGSLRRDMQPLSPISVHERYSSPTAGSAKRRLFGEDPPKEMLMDKIITEGTKLKIAPSSSITAENVSILPGQTLLTMATAPVTGTTGHKVTIPLHGVANDAGEITLIPLSMNTNQESKVKSPVSLTAHSLIGASPKQTNLTKAQEVHSTGINRPKRTGSLALFYRKVYHLASVRLRDLCLKLDVSNELRRKIWTCFEFTLVHCPDLMKDRHLDQLLLCAFYIMAKVTKEERTFQEIMKSYRNQPQANSHVYRSVLLKSIPREVVAYNKNINDDFEMIDCDLEDATKTPDCSSGPVKEERGDLIKFYNTIYVGRVKSFALKYDLANQDHMMDAPPLSPFPHIKQQPGSPRRISQQHSIYISPHKNGSGLTPRSALLYKFNGSPSKSLKDINNMIRQGEQRTKKRVIAIDSDAESPAKRVCQENDDVLLKRLQDVVSERANH
Turning to B3, the binding result is “binds weakly” in test [9] and “binds” in test [10].
